# Results as given in PubChem BioAssay AID2417 (National Center for Advancing Translational Sciences (NCATS), 2010).
# Among all 140,000 compounds or so, about 4,300 (3.1%) were called active. The inconclusive results got no clear call from the source; some entries with a clear call stand among them for comparison.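 The calls were made as follows: active = readout at or below -70, meaning at least 70% loss of cells showing the perinucleolar compartment, a nuclear body marking cancer cells; inconclusive = readout between -30 and a set limit; inactive = the rest.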
# Assay: High Content Assay for Compounds that inhibit the Assembly of the Perinucleolar Compartment;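 also: plate controls were DMSO wells for no effect and camptothecin positive control wells for full effect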
# Settings: PC3M PTB-GFP, PNC prevalence imaging, 16 h; at 10 µM; active compounds read low
# Text: High Content Assay for Compounds that inhibit the Assembly of the Perinucleolar Compartment NIH Chemical Genomics Center [NCGC] NIH Molecular Libraries Probe Centers Network [MLPCN] MLPCN Grant: MH082371-01A2 Assay Submitter (PI): Sui Huang, Northwestern University, Feinberg School of Medicine, Cell and Molecular Biology, Chicago, Illinois. The perinucleolar compartment (PNC) is a non-membrane-bound nuclear subdomain that is associated with but structurally distinct from the nucleolus. The PNC is a heritable trait, in which the number of PNCs per cell in daughter cells often mimics that of their mother cells. The PNC is heterogeneous in shape, is stable through interphase, disassembles during mitosis, and reassembles in early G1. The PNC is concentrated with newly synthesized RNA polymerase III (pol III) RNAs (MRP RNA, RNAse P H1 RNA, hY RNAs[hY1, 2, 5], Alu RNA, and SRP [7SL] RNA) and RNA binding proteins (nucleolin, PTB, CUG-BP, KSRP, Raver1, Raver2, and Rod). […] Extensive in vitro studies have shown that the PNC is unique to tumor cells and preferentially forms in tumor cells derived from solid tissues. Examination of cancer cell lines from various origins and malignant capacities has shown that PNC prevalence correlates with the malignancy of tumors and has the potential to be developed as a pan-cancer prognostic marker. […] Although the PNC is associated with a DNA locus and a handful of components have been identified, much remains to be investigated regarding the structure and function of the PNC and its mechanistic link to cancer. We have previously shown that PNC prevalence reduction is a valid strategy to identify compounds that can be used to study the structure and function of the PNC. It is necessary, however, to create a screening platform that is able to test a large number of compounds in an automated fashion. Here we report the development and robustness of an automated whole-cell phenotypic image-based screening assay that is capable of identifying such compounds.
# PNC High Content Imaging Assay Procedure: 1. Cells at a density of 75-90% confluency in T175 flasks were harvested using 7 ml TrypLE Express cell dissociation reagent. After dissociation (5 minutes room temperature incubation) 10 ml of complete media was added to the TrypLE/cell suspension. The liquid was transferred to a 50 ml Conical tube and cells were pelleted at 1000 RPM for 5 min. Supernatant was removed and cells were resuspended to a final density of 150-200 cells/ul in complete media. 2. Cells were plated in 5 ul volume (750-1000 cells/well) into 1536 well Black uclear Aurora Low Base plates and allowed to recover and adhere at 37 C in a humidified 5% CO2 incubator for 4 hours. 3. After 4 hour incubation, compound libraries (23 nl of […] in columns 5-48) were transferred to the plates in duplicate using a 1536 well pintool. Camptothecin positive control (59 uM final) was added to column 2 and 1:3 dilutions of camptothecin was added to column 3. DMSO negative controls were present in columns 1 and 4. 4. After a 16 hour incubation in the 37 C incubator, cells were fixed by the addition of 4 ul of 6% EM grade paraformaldehyde (containing 0.1% triton X 100) directly to the cells. The plates were incubated at room temperature for 20 minutes. The liquid was removed using a 32 channel Kalypsys aspirator and the fixed cells were washed twice with 5 ul PBS followed by a final addition of 5 ul PBS containing 1 ug/ml Hoechst 33342. 5. Fixed plates were sealed and sotred at 4C until imaged. 6. Plates were imaged on an InCell 1000 automated microscope using a 20 x objective, a standard FITC filter set, no camera binning, and an exposure time of ~100-150 msec/well. 7. Data analysis. PNC prevalence was determined using the Multitarget analysis module from InCell Workstation software (V3.5 ) and analysis was run on a quad core workstation using the Incell Developer Toolbox (V1.7). […]
row,Structure (SMILES),"activity change (PNC), negative = inhibition"
1,CCc1ccc(-n2cc(-c3ccc([N+](=O)[O-])cc3)[nH]c2=S)cc1,inconclusive: -34.5%
2,O=C(Nc1ccc2c(c1)OCO2)c1cccc(Cl)c1,inactive: 3.18%
3,CCN1C(=O)c2ccc(C(=O)Nc3nccs3)cc2C1=O,inconclusive: -71.7%
4,CCOC(=O)c1ccc(NC(=O)CC2COc3ccccc3O2)cc1 (stereo unspecified),inconclusive: -55.6%
5,Cc1ccsc1/C=N/n1c(C2CCCCC2)n[nH]c1=S,inactive: -0.276%
6,CCCCn1nc2cc(C(=O)NCc3ccccc3)ccc2c1OCC,inactive: 1.27%
7,CCOC(=O)N1CCC(Nc2c(-c3ccc(C)cc3)c(=O)c2=O)CC1,inconclusive: -63.9%
8,c1ccc2c(c1)CCOC2CNCCCN1CCCCC1 (stereo unspecified),inactive: 5.4%
9,CC12CC3(C)CC(C)(C1)CC(C(=O)NC(=S)NC(C)(C)C)(C2)C3,inconclusive: -42.2%
10,CC(C)c1ccc(CN(C(=O)c2cc3ccccc3oc2=O)C2CCS(=O)(=O)C2)cc1 (stereo unspecified),inactive: 11.4%
11,Cn1c2ccccc2c2c(C(=O)N3CCN(C(=O)c4ccco4)CC3)cn(C3CCCCC3)c(=O)c21,inconclusive: -46.6%
12,CC(C)CCNC(=O)CN(C)S(=O)(=O)c1cccc2nsnc12,inconclusive: -35.7%
13,CCCn1c(SCC(=O)N2CCCC2)nc2c1c(=O)n(C)c(=O)n2C,inactive: -8.97%
14,CCOC(=O)Cc1c(C)c2c(C)[nH]nc2oc1=O,inconclusive: -43.8%
15,Cn1c(=O)c2c(nc(CN3CCOCC3)n2CCN2CCOCC2)n(C)c1=O,inconclusive: -52%
16,O=C(NCCCn1ccnc1)c1ccc(Br)o1,inconclusive: -39.9%
17,O=S(=O)(NCc1cccnc1)c1ccc2c(c1)OCCO2,inactive: -0.76%
18,CSc1nc(C)cc(SCCO)n1,inactive: 33.9%
19,Cc1ccc(-n2nc(-c3ccccc3)cc2Nc2ccccc2N)cc1,inconclusive: -58.8%
20,COc1ccc(-n2ncc3c(NCC4CCCO4)ncnc32)cc1 (stereo unspecified),inconclusive: -45.6%
21,O=C(CSc1nc2ccccc2c(=O)n1Cc1ccco1)N1CCN(c2ccccc2)CC1,inconclusive: -32.8%
22,CC(C)C(=O)NC(=S)Nc1ccc(S(=O)(=O)Nc2ccccc2)cc1,inconclusive: -45.6%
23,O=[N+]([O-])c1ccc(/C=N/n2c(COc3ccccc3)n[nH]c2=S)cc1,inconclusive: -49%

row,Structure (SMILES),"activity change (PNC), negative = inhibition"
1,CCCC(=O)NCCc1nc2cc([N+](=O)[O-])ccc2n1C,inconclusive: -74.1%
2,CSc1ccc(N2C(=O)NC3(CCCCC3)C2=O)cc1,inconclusive: -33.4%
3,COC(=O)c1sccc1NC(=O)C1C2C=CC(C2)C1C(=O)O (stereo unspecified),inactive: -21.3%
4,Cc1ccccc1NC(=S)NC(NC(=O)c1ccccc1C)C(Cl)(Cl)Cl (stereo unspecified),inactive: -16.5%
5,O=[N+]([O-])c1cc(S(=O)(=O)Nc2ccccc2)ccc1N1CCN(c2ccccc2)CC1,inactive: -6.2%
6,CC(=O)Nc1ccc(S(=O)(=O)N2CCN(C(C)CCc3ccccc3)CC2)cc1 (stereo unspecified),inactive: 13.6%
7,O=C(c1ccco1)c1nnn(Cc2ccccc2)c1-c1ccccc1,inconclusive: -34.6%
8,COc1ccc(CCNC(=O)c2ccc(Cl)c(S(=O)(=O)N(C)c3ccccc3)c2)cc1,active: -88.5%
9,O=c1cc(CN2CCN(c3ccccc3O)CC2)nc2sccn12,inactive: -21.7%
10,COC(=O)c1ccc(COC(=O)C(CCS(C)(=O)=O)N2C(=O)c3ccccc3C2=O)cc1 (stereo unspecified),active: -104%
11,CC(C)(C)OC(=O)C(Cc1ccc(OC(C)(C)C)cc1)NC(=O)CNC(=O)CNC(=O)OCc1ccccc1 (stereo unspecified),inconclusive: -68.7%
12,CCCCOc1cccc(C2C(C(=O)c3cccs3)=C(O)C(=O)N2Cc2cccnc2)c1 (stereo unspecified),inconclusive: -38.6%
13,Cc1occc1C(=O)N1CCCc2ccccc21,inconclusive: -75.5%
14,COc1cc2nc(NCCCN3CCN(C)CC3)n3nc(-c4ccccc4)nc3c2cc1OC,inconclusive: -43.9%
15,COCCOC(=O)c1c(C)oc2ccc(O)c(CN3CCC(C)CC3)c12,active: -110%
16,Cc1ccccc1NC(=O)/C(=C/c1ccccc1)c1ccccc1,inactive: -2.63%
17,CO/N=C/c1ccc(N2CCN(C(=O)c3cccc(Cl)c3)CC2)c([N+](=O)[O-])c1,inactive: 77.9%
18,O=C(c1cccc(F)c1)N1CCCC(C(=O)N2CCCC2)C1 (stereo unspecified),inconclusive: -60.4%
19,CC(C)NC(=S)N/N=C1\CCCCc2ccccc21,inconclusive: -30.2%
20,Cc1ccc(C(=O)N2CCN(c3ccc(Cl)cc3)CC2)cc1,inconclusive: -45.5%
21,O=C(Nc1ccc(Cl)cc1)Nc1ccccc1NS(=O)(=O)c1cccs1,inactive: 7.62%
22,O=C(CNC(=O)c1ccco1)OCC(=O)c1ccccc1,inconclusive: -53.9%
23,Cc1nc2nc(-c3ccccc3)cc(=O)n2[nH]1,inconclusive: -42.6%

row,Structure (SMILES),"activity change (PNC), negative = inhibition"
1,COc1cc(NC(=O)C2CC(=O)NC3=C2C(=O)CC(C)(C)C3)c(OC)cc1Cl (stereo unspecified),inconclusive: -43.1%
2,Cc1c(C(=O)Nc2ccc(Cl)cn2)oc2ccccc12,inconclusive: -52.3%
3,O=C(NCCO)c1cccc2c1C(=O)c1ccccc1-2,inconclusive: -48.3%
4,CCCCNC1C(CC)C(CCC)C(C#N)(C#N)C1(C#N)C#N (stereo unspecified),inactive: 10.8%
5,COCCN(C(=O)CCC(=O)Nc1ccccn1)C(C(=O)NC1CCCC1)c1ccc(OC)cc1 (stereo unspecified),inactive: -4.76%
6,CC(NS(=O)(=O)c1ccc(Br)cc1)C(c1cccs1)N1CCOCC1 (stereo unspecified),inconclusive: -45.2%
7,O=c1oc2ccccc2cc1N1CCOCC1,inactive: -26.5%
8,CCCSc1nnc(-c2c[nH]c3ccccc23)n1CC,inconclusive: -44.3%
9,Cc1cc(NC(=O)C2C3C(=O)N(CCC(C)C)C(C(=O)NCc4ccccc4)C34C=CC2(C)O4)no1 (stereo unspecified),inconclusive: -72.2%
10,Cc1ccccc1S(=O)(=O)NCc1cccnc1,inactive: 35.8%
11,CC(C)CC(NC(=O)C(Cc1ccc(OCc2ccccc2)cc1)NC(=O)OC(C)(C)C)C(N)=O (stereo unspecified),inconclusive: -49.4%
12,O=C(CSC(=S)N1CCCCC1)Nc1nc(-c2ccccc2)c(-c2ccccc2)o1,inactive: 25.4%
13,N#C/C(=C\c1ccc(N2CCOCC2)cc1)c1ccccc1,inactive: -19.5%
14,C=CCOc1c(CNc2ccc(C(=O)O)cc2)cccc1OC,inconclusive: -30.7%
15,Cc1ccc(-c2csc(NC(=O)CSc3nc(C)cs3)n2)cc1,inactive: -19.9%
16,O=C(COC(=O)c1ccccc1Cl)Nc1nccs1,inconclusive: -37.8%
17,CCOc1ccc(C(=O)Nc2cccc(-c3nc4ccccc4[nH]3)c2C)cc1[N+](=O)[O-],inconclusive: -44.2%
18,COc1cccc(CN2CCN(C(=O)c3cccc4ccccc34)CC2)c1OC,inconclusive: -72.7%
19,COc1ccc2cc(CN(CCCN3CCOCC3)Cc3nnnn3C3CCCCC3)c(=O)[nH]c2c1,inactive: 25.5%
20,CCOC(=O)CSc1nc(C2CC2)cc(-c2ccc(F)cc2)c1C#N,inconclusive: -37.3%
21,CCc1nnc(NC(=O)Cc2ccc(OCc3c(C)noc3C)cc2)s1,inconclusive: -55.1%
22,CCN(CC)C(=O)c1ccc2nc(-c3ccccc3)c(-c3ccccc3)nc2c1,inconclusive: -54.2%
23,CCN(CC)C(=O)Cn1cnc2sc(C(=O)N3CCN(c4ccc(OC)cc4)CC3)c(C)c2c1=O,inconclusive: -30.9%

# Quoted at random: three entries already listed.
row,Structure (SMILES),"activity change (PNC), negative = inhibition"
13,N#C/C(=C\c1ccc(N2CCOCC2)cc1)c1ccccc1,inactive: -19.5%
21,CCc1nnc(NC(=O)Cc2ccc(OCc3c(C)noc3C)cc2)s1,inconclusive: -55.1%
5,COCCN(C(=O)CCC(=O)Nc1ccccn1)C(C(=O)NC1CCCC1)c1ccc(OC)cc1 (stereo unspecified),inactive: -4.76%

# The listing continues.

row,Structure (SMILES),"activity change (PNC), negative = inhibition"
1,CCCCOc1ccc(Cc2n[nH]c(=S)n2N)cc1,inactive: 62.5%
2,O=C(CN1CCOCC1)NC1CC2CCC1C2 (stereo unspecified),inconclusive: -51%
3,O=S(=O)(NNc1ccc(Cl)nn1)c1ccc(F)cc1,active: -87.9%
4,O=C(C1CCN(C2CC(=O)N(c3cccc(Cl)c3)C2=O)CC1)N1CCCCCC1 (stereo unspecified),inactive: -24.5%
5,COc1ccc(C(=O)c2ccc(Cl)cc2)cc1,inconclusive: -46.2%
6,Cc1cc(C)n2c(SCC(=O)Nc3cc(C)on3)nnc2n1,active: -100%
7,Cc1ccccc1N1CCN(C(=O)CN2C(=O)c3ccccc3C2=O)CC1,inconclusive: -34.9%
8,O=C(Nc1cccnc1)c1ccc(COc2ccccc2Br)o1,inactive: 6.01%
9,NC(=O)C1(N2CCCCC2)CCN(c2nc(-c3ccccc3)cs2)CC1,inconclusive: -37.7%
10,NC1=C([N+](=O)[O-])C(c2ccccc2)C2=C(CCCC2=O)O1 (stereo unspecified),inactive: 6.59%
11,CCOC(=O)C(NC(C)=O)(Nc1ccc(F)cc1)C(F)(F)F (stereo unspecified),inconclusive: -65%
12,Cc1cc(C)c(OCC(=O)Nc2ccccc2N2CCOCC2)c(C)c1,inconclusive: -43.4%
13,CCOC(=O)Cc1cc(-c2ccc(O)cc2)nc2ccc3ccccc3c12,inconclusive: -43.5%
14,C=C(C)C(=O)NC1=NN(c2ccccc2)C(=O)C1,inconclusive: -48.6%
15,N#C/C(=C\c1cccnc1)C(=O)NC1CCCCC1,inactive: 23.1%
16,CCNC(=S)N1CCN(C(=O)c2ccco2)CC1,inconclusive: -46.6%
17,O=C(Nc1ccc(OC(F)(F)F)cc1)C1=NCCN1,inconclusive: -41.8%
18,Cc1ccc(C2C(/C=C3/SC(=S)NC3=O)=C(c3cccs3)Oc3ccccc32)cc1 (stereo unspecified),inactive: -26.3%
19,COc1cc(OC)c(N2CC34C=CC(O3)C(C(=O)O)C4C2=O)cc1Cl (stereo unspecified),active: -91.7%
20,O=C1C=C(OCc2ccccc2)CN1,inconclusive: -49.4%
21,CC(=O)N1CCN(c2ccc(NC(=O)C(C)Oc3ccc(Cl)cc3Cl)cc2)CC1 (stereo unspecified),inconclusive: -47.2%
22,Cc1ccccc1CS(=O)(=O)c1nnc([C@H](Cc2ccccc2)NC(=O)OC(C)(C)C)o1,inconclusive: -68.9%
